Data reported in PMC2928751.
No constants are given. Whether binding was seen depends on the method and setting. In cells and extracts the contact can be indirect. Some results given as binding are weak or reduced against the parent protein; the word gives no strength.

Sequences of proteins named here, by UniProt entry; tags and fusion partners are left off. A change or cut given only in a name is not applied to a line headed by its entry. A line that says so, or that is headed by a name, gives the form on record, which may keep a tag or linker.
GST-JNK1 (P45983, form named): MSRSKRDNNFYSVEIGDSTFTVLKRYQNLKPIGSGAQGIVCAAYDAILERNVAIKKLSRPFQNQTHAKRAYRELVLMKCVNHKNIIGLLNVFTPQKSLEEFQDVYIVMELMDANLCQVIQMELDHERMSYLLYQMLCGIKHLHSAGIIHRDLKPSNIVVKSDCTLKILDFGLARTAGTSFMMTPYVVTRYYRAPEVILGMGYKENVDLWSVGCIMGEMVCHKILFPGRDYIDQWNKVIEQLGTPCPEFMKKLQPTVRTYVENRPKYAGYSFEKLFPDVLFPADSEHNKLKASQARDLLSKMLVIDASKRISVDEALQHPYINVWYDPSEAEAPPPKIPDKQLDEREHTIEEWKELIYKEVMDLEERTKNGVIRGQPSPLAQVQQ
GST-JNK3 (P53779, form named): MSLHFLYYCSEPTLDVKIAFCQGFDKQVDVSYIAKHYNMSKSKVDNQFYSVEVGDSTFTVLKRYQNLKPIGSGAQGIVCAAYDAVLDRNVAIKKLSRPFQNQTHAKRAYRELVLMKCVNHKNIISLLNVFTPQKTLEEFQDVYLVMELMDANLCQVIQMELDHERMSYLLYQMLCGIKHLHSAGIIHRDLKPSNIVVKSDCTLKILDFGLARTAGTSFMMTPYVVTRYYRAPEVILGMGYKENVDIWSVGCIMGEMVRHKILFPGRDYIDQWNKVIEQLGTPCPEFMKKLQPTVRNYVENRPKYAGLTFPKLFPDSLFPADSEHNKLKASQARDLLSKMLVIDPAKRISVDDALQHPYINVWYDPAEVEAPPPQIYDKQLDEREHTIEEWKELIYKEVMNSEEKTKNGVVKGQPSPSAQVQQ

Assays:
Assay in all cases: pull-down; GST fusion protein (or GST alone) bound to glutathione-Sepharose beads; ~1 pmol 35S-labelled in vitro translated partner, partially purified by ammonium sulfate precipitation; binding buffer 20 mM Tris-HCl pH 7.5, 125 mM KOAc, 0.5 mM EDTA, 1 mM DTT, 0.1% Tween20, 12.5% glycerol; 30°C 15 min, then 30 min at room temperature; only the target purified
GST-JNK1 (human) = GST-JNK1 (human) (UniProt P45983)
GST-JNK2 (human) = GST-JNK2 (human) (UniProt P45984)
GST-JNK3 (human) = GST-JNK3 (human) (UniProt P53779)

Measured: binding

B1: Gli1(68-232), wild type (domain or fragment, UniProt P08151 68-232)
chain: FSSPRSAVKLTKKRALSISPLSDASLDLQTVIRTSPSSLVAFINSRCTSPGGSYGHLSIGTMSPSLGFPAQMNHQKGPSPSFGVQPCGPHDSARGGMIPHPQSRGPFPTCQLKSELDMLVGKCREEPLEGDMSSPNSTGIQDPLLGMLDGREDLEREEKREPESV
modifications: [35S]-methionine labelled
binds: all assays above
